The target in assay [1] is T1, Arabidopsis thaliana PCC1 (Arabidopsis thaliana) (UniProt Q8GWD7).
T1 sequence: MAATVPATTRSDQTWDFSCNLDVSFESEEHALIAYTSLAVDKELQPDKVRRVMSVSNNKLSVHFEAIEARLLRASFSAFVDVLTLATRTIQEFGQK
In words: co-purification (Ni-NTA affinity, then SEC); subunits co-expressed in E. coli from one plasmid with 6His on one subunit; Ni-NTA then SEC, SDS–PAGE; lysis buffer 20 mM Tris–HCl pH 7.5, 300 mM NaCl, 5 mM β-mercaptoethanol.

By UniProt entry, the sequences of proteins in these tests, tags left out. Where a name states a change or a piece, a line headed by the entry shows the natural chain unless it says otherwise.
UniProt O49653: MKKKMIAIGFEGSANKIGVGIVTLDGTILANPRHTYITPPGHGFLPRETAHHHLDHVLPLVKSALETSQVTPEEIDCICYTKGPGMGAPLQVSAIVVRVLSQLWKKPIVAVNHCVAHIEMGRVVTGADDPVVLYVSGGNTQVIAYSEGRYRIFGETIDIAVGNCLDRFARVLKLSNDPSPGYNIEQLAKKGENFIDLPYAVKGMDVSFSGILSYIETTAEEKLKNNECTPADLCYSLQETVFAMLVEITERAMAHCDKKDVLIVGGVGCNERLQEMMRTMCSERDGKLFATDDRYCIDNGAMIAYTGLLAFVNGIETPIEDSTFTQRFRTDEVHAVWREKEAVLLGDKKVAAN

The target of assay [2] is T1, Arabidopsis thaliana PCC1 (Arabidopsis thaliana). The assay can be described thus: cryo-EM structure; AtKEOPS mixed with tRNA^ArgCCU at 1:2; tRNA not seen; six subunits resolved (KAE1, PCC1, PCC1, KAE1, BUD32, CGI121); 3.2 Å after local refinement; both purified.

No constants are given. Whether binding was seen depends on the method and setting. Binding calls can cover weak binding; strength is not graded here. For some assays here: In cells and extracts the contact can be indirect.

Regarding “Arabidopsis thaliana KAE1 (from UniProt O49653)”, the binding result in assay [1] and in assay [2] was “binds” each time.

The values above are taken from publication PMC11077089, “Molecular basis of A. thaliana KEOPS complex in biosynthesizing tRNA t^6A” (Nucleic Acids Research, 2024).
